Test results taken from patent US20250277057A1 (OKLAHOMA MEDICAL RESEARCH FOUNDATION, published 2025).
Changes are numbered by the printed parent chain. Results are given in words; binding and its absence hold for the method and conditions named. Binding calls can cover weak binding; strength is not graded here.

Assays:
[1] = target: human activated protein C (human); test: ELISA, plate coated with haPC 1 ug/mL, anti-hIgG-Fc-HRP
[2] = target: human activated protein C (human); test: Octet BLI
[3] = target: human activated protein C (human); test: preliminary screening of the Fab mutant library, ELISA
[4] = target: human activated protein C (human); test: KD ELISA of Fab

B1: HAPC-14-9 (antibody, V domains shown)
VH: EVQLVESGGGLVQPGGSLRLSCAASGFTFSFYYLNWVRQAPGKGLEWVGDIRLKKNNYEKHYAESVKGRFTISRDDSKSITYLQMNSLRAEDTAVYYCAREGDTFDYWGQGTTVTVSS
VL: DIQLTQSPSSLSASVGDRVTITCRASESVDSFGATFMHWYQQKPGKAPKLLIYLASRLGSGVPSRFSGSGSGTDFTLTISSLQPEDFATYYCQQNNEDPYTFGQGTKLEIK
notes: Whole IgG, backbone hIgG1; also called HPAC 14-9
binding [1]: binds | binding [2]: binds

B2: HAPC-14-10 (antibody, V domains shown)
VH: B1 VH with F31N
VL: B1 VL with Q93V
notes: Whole IgG, backbone hIgG1; also called HPAC 14-10
binding [1]: binds | binding [2]: binds

B3: HAPC-14-R1-3H4-C6 (Fab, V domains shown)
VH: B1 VH with F31N, K55S
VL: B1 VL with R57N, G59E
notes: Single-site mutant Fab of HAPC-14
binding [3]: binds

B4: R2-24D4 (Fab, V domains shown)
VH: B1 VH
VL: B1 VL with R57W, G59P
notes: Combinatorial mutant Fab of HAPC-14; also called combinatorial mutant No. 10
binding [4]: binds
